No constants are given. Whether binding was seen depends on the method and setting. Binding seen in cells or lysates may run through a third protein. Some binding calls cover weakened binding; strength is not graded here. For some assays here: Where a sequence is shown, tags or fusion partners need not be part of it. One block for each substance: values may come before it.
Experiments:
CCT4-TEV-3xFLAG = target: T1, CCT4-TEV-3xFLAG (UniProt P50991); assay: co-IP; 3xFLAG-tagged PSMB or CCT subunits overexpressed in HEK293T cells (CCT4-3xFLAG also after control, HERC2, KCMF1 or UBR4 siRNA); digitonin lysate in native IP buffer; anti-FLAG M2 affinity gel, 4°C; immunoblot for endogenous proteins
T1 sequence: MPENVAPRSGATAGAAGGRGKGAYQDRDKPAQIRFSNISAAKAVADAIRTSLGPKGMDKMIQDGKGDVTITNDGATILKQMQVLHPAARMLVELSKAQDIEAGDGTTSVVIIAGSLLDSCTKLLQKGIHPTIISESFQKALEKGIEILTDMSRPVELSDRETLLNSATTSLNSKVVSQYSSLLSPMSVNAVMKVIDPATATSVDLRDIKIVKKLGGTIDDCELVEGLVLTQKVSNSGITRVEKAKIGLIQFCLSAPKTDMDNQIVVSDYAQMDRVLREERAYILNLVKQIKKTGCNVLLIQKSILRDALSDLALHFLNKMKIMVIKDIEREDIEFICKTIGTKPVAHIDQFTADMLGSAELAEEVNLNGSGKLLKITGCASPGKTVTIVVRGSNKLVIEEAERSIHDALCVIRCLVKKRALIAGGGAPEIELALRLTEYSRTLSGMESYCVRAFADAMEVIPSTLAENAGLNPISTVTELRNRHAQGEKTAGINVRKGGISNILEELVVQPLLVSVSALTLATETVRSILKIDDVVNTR

Sequences of proteins named here, by UniProt entry; tags and fusion partners are left off. A change or cut given only in a name is not applied to a line headed by its entry. A line that says so, or that is headed by a name, gives the form on record, which may keep a tag or linker. Residues count along the entry.
UniProt Q9P0J7: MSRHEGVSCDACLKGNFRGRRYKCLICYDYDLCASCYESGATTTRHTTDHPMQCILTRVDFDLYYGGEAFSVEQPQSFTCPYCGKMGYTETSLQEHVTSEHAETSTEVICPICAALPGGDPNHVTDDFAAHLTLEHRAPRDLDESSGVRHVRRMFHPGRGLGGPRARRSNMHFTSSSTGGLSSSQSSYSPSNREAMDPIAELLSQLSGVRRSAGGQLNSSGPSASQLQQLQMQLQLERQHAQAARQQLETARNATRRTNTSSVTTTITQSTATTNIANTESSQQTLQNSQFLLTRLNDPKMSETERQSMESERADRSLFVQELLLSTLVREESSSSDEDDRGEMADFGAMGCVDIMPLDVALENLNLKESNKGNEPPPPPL
KCMF1ΔCTD-TEV-3xFLAG (lacking aa 299-381): residues 1-298 of Q9P0J7
KCMF1ΔNTD-TEV-3xFLAG (lacking aa 1-139): residues 140-381 of Q9P0J7
KCMF1ΔMLD-TEV-3xFLAG (lacking aa 196-263) (Q9P0J7, form named): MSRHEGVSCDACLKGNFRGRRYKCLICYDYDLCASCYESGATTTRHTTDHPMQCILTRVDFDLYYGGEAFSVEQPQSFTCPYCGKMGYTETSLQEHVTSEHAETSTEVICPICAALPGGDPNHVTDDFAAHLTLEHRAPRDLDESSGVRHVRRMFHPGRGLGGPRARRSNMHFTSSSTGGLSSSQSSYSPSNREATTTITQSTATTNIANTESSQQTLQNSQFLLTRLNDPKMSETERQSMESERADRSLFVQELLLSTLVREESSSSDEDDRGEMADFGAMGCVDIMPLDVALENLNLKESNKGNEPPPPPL
UniProt P20618: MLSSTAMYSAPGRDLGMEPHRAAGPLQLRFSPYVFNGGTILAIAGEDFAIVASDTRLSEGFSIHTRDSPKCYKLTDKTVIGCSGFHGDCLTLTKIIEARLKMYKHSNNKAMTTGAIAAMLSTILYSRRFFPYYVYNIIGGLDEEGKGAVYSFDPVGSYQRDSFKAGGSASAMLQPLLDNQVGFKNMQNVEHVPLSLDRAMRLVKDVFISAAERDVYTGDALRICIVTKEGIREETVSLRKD
UniProt P49721: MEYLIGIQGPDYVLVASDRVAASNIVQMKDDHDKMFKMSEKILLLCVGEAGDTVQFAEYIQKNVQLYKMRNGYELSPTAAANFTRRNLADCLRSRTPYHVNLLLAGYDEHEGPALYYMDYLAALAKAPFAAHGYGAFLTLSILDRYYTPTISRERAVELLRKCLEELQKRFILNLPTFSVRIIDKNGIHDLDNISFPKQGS
UniProt P28070: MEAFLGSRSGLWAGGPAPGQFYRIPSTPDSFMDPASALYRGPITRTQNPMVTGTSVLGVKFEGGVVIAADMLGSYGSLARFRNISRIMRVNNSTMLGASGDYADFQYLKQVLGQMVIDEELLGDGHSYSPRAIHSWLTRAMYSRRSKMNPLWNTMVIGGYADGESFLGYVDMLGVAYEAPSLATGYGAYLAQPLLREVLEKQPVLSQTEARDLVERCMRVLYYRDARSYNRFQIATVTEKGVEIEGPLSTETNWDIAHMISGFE
UniProt Q5T4S7: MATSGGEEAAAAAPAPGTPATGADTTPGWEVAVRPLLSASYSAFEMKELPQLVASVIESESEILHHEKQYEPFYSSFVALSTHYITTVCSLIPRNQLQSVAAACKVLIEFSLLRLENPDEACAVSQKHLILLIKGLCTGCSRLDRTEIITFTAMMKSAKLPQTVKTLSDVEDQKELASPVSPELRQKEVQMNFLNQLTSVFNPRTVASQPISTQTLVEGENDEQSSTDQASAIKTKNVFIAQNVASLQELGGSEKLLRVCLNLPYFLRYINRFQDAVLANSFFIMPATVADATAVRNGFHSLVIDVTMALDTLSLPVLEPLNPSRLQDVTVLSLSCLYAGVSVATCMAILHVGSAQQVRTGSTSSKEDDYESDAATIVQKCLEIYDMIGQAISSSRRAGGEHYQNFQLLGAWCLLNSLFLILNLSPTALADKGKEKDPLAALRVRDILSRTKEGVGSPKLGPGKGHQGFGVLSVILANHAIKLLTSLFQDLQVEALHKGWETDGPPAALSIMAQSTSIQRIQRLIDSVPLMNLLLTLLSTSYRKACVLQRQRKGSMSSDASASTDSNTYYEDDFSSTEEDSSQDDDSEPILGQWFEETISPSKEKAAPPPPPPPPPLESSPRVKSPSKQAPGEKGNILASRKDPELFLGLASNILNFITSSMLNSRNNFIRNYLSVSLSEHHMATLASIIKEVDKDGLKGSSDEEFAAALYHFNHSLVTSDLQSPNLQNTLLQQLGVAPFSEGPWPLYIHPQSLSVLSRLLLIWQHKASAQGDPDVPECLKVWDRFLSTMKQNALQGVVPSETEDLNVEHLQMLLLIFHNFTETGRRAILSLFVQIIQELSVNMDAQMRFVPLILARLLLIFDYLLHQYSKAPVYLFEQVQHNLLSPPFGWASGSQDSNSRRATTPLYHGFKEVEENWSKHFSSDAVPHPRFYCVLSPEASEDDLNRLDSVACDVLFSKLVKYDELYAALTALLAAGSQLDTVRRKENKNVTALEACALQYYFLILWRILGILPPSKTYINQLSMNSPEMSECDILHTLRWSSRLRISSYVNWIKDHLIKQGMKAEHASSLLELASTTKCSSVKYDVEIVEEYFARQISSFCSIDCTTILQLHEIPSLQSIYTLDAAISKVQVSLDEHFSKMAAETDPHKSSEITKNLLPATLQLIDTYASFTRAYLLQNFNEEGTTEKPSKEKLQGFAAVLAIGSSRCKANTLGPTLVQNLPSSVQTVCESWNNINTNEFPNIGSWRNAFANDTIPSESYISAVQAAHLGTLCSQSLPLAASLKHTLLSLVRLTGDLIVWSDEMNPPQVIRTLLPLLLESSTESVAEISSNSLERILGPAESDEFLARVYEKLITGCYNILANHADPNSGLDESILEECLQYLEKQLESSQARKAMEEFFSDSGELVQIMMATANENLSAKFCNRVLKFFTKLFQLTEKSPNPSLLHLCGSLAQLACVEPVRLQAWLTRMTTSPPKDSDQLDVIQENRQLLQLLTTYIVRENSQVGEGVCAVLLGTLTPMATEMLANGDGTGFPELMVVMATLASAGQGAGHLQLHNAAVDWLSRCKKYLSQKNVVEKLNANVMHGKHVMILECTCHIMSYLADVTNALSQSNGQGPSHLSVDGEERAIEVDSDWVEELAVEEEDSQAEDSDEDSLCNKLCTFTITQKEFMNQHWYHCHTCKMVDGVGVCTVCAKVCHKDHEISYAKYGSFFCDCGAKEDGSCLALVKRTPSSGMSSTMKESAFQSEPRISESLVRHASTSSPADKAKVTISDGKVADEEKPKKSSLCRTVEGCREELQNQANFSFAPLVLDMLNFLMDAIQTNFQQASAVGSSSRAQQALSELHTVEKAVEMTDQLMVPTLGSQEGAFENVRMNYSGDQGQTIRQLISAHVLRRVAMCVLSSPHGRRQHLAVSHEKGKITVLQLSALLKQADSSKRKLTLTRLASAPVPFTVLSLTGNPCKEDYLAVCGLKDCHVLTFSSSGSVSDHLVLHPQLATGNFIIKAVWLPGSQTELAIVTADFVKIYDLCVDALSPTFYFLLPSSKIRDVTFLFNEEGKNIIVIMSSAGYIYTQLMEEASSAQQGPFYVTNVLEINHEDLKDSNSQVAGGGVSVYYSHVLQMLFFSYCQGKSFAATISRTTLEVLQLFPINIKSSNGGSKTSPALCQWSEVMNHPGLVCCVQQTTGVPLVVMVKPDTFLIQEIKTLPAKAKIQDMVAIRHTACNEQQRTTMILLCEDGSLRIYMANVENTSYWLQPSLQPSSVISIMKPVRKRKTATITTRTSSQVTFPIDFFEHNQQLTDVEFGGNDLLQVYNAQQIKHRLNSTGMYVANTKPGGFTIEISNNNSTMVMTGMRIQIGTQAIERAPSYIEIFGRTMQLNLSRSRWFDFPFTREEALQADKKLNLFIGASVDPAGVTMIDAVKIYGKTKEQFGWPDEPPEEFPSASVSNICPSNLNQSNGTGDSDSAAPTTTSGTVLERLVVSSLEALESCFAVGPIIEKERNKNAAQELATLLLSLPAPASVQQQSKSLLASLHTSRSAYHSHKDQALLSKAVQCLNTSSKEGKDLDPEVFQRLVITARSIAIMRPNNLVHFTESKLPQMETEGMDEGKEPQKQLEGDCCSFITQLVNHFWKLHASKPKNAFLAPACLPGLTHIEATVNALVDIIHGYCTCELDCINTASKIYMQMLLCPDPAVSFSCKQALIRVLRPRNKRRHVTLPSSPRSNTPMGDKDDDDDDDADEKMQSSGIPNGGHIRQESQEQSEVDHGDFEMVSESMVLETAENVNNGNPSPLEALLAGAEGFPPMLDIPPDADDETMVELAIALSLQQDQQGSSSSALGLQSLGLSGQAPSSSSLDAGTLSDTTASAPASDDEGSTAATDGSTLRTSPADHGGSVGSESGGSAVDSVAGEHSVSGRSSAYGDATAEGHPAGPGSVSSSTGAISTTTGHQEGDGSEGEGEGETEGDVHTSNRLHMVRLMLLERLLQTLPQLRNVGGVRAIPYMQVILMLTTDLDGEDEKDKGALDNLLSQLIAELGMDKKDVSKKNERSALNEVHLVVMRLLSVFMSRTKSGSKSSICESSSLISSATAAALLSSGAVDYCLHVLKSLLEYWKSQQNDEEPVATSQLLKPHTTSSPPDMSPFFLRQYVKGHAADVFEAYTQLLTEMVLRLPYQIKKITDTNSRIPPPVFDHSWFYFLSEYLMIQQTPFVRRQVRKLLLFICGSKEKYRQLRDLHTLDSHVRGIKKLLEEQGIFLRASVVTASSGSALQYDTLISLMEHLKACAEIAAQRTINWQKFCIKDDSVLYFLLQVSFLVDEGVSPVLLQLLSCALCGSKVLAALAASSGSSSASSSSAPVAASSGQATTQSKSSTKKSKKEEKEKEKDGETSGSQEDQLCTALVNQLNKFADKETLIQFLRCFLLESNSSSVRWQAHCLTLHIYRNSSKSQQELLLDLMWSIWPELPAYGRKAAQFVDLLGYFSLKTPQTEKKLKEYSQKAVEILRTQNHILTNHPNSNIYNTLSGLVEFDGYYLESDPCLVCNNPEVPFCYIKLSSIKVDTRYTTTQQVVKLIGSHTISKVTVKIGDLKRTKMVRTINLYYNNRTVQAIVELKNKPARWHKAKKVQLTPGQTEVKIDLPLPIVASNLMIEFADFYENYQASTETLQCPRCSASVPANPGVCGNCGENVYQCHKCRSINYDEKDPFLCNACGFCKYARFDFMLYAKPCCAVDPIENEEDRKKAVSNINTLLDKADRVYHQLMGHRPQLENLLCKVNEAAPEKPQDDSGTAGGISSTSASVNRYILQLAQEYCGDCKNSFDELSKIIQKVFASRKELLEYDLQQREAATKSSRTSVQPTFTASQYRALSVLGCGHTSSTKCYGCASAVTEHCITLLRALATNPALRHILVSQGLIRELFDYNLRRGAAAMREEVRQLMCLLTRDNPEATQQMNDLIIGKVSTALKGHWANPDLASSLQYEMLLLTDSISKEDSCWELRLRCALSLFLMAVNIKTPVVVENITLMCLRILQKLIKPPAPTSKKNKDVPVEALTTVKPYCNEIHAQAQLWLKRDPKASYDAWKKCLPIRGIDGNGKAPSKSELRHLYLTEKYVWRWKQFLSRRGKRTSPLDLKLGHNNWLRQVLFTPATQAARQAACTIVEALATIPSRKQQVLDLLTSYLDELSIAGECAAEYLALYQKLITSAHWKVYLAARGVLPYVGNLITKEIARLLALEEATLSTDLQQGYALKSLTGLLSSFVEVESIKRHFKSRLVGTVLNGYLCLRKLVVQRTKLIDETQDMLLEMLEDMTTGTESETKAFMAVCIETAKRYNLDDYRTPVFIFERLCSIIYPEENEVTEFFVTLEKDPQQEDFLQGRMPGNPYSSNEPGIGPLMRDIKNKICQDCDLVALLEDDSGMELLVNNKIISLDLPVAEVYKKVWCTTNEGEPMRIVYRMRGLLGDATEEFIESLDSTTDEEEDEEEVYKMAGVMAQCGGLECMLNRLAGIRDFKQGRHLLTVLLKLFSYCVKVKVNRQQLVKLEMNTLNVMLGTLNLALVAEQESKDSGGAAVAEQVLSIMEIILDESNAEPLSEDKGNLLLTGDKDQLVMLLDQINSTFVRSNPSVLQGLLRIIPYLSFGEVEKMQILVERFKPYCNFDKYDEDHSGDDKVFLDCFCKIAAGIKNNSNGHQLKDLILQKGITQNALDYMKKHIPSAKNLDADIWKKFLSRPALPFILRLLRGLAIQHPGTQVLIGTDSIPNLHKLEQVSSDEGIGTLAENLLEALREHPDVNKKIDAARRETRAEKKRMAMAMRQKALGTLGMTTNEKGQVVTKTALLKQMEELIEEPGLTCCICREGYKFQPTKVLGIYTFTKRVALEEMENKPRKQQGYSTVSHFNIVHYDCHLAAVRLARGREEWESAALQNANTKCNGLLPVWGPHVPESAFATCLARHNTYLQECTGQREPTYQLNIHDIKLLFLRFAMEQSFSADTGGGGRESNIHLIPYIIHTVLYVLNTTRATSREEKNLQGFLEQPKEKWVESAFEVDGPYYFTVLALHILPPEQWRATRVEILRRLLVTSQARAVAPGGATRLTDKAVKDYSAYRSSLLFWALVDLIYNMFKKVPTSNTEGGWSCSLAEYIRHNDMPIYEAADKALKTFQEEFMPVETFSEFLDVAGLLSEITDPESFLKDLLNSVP

CCT8-TEV-3xFLAG = CCT8-TEV-3xFLAG (UniProt P50990); assay: as above
[1] = target: endogenous KCMF1 of human cultured cells (human (endogenous in HEK293T and Flp-In T-REx 293)) (UniProt Q9P0J7); assay: co-sedimentation; digitonin cytosolic lysates of Flp-in TREx cells on a 5-25% sucrose gradient in PSB, 55000 rpm, 45 min, 4°C; fractions immunoblotted
KCMF1-TEV-3xFLAG = KCMF1-TEV-3xFLAG (UniProt Q9P0J7); assay: co-IP; KCMF1-3xFLAG constructs expressed in KCMF1 KO TREx 293 cells; digitonin lysate in native IP buffer (50 mM HEPES-KOH, 100 mM KAc, 2 mM Mg(Ac)2, 0.01% digitonin); anti-FLAG M2 affinity gel, 4°C; immunoblot
[2] = target: KCMF1ΔCTD-TEV-3xFLAG (lacking aa 299-381) (UniProt Q9P0J7); assay: as above
[3] = target: KCMF1ΔMLD-TEV-3xFLAG (lacking aa 196-263) (UniProt Q9P0J7); assay: as above
[4] = target: KCMF1ΔNTD-TEV-3xFLAG (lacking aa 1-139) (UniProt Q9P0J7); assay: as above
PSMB1-3xFLAG = PSMB1-3xFLAG (UniProt P20618); assay: co-IP; 3xFLAG-tagged proteins translated in rabbit reticulocyte lysate, diluted in PSB, anti-FLAG M2 affinity gel 60 min at 4°C under native conditions; immunoblot for endogenous proteins of the lysate
PSMB2-3xFLAG = PSMB2-3xFLAG (UniProt P49721); assay: as above
PSMB3-3xFLAG = PSMB3-3xFLAG (UniProt P49720); assay: as above
PSMB4-3xFLAG = PSMB4-3xFLAG (UniProt P28070); assay: as above
PSMB5-3xFLAG = PSMB5-3xFLAG (UniProt P28074); assay: as above
PSMB6-3xFLAG = PSMB6-3xFLAG (UniProt P28072); assay: as above
PSMB7-3xFLAG = PSMB7-3xFLAG (UniProt Q99436); assay: as above

binding (CCT4-TEV-3xFLAG): binds
binding (CCT8-TEV-3xFLAG): binds weakly
Substance: endogenous KCMF1 of human cultured cells (from UniProt Q9P0J7 1-381)

binding (CCT4-TEV-3xFLAG): binds
Substance: endogenous HERC2 of HEK293T cells (from UniProt O95714 1-4834)

binding [1]: binds
binding (KCMF1-TEV-3xFLAG): binds
binding [2]: binds
binding [3]: binds
binding [4]: binds
binding (CCT4-TEV-3xFLAG): binds
binding (CCT8-TEV-3xFLAG): binds weakly
Substance: endogenous UBR4 of human cultured cells (from UniProt Q5T4S7 1-5183)

binding (PSMB1-3xFLAG): binds
binding (PSMB2-3xFLAG): binds
binding (PSMB3-3xFLAG): binds
binding (PSMB4-3xFLAG): binds
binding (PSMB5-3xFLAG): binds
binding (PSMB6-3xFLAG): binds
binding (PSMB7-3xFLAG): binds
Substance: endogenous UBR4 of rabbit reticulocyte lysate (from UniProt G1SCY3 1-5180)

Source: publication PMC7617804
